Measured data: PubChem BioAssay AID1259405 (NCATS, 2018)
In all, the deposit lists about 50,000 reagents; this is a random part of them. About 4,000 of them (8%) count as active. 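Mouse siRNA library applied to hamster cells; one well for each siRNA.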 Entries without a mark were called inactive. The numbers tell different reagents against one gene apart. Reagent sequences are not shown.

Assay: 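Knock-downs that lift recombinant protein yield in hamster ovary cells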 (primary screen)
Cells: Chinese hamster CHO-K1 ovary cells with stable secreted eGFP expression
Knock-down reagent: single siRNA against mouse genes, 0.8 pmol siRNA per well (2 µl of 400 nM stock)
Duration: 3 days
Measurement: 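Percent of the per-plate non-targeting control median for intracellular GFP per well by laser scanning cytometry and for cell viability by ATP luminescence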
Reading the numbers: GFP, % of control: higher = more GFP per well, higher productivity; viability (ATP), % of control: higher = more viable cells (more ATP)
Rule for the call: 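Called active when intracellular GFP, relative to negative control, is at or above 120%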

| GFP, % of control | viability (ATP), % of control | gene symbol | reagent |
| --- | --- | --- | --- |
| 150 (active) | 122 | Galnt13 (GeneID 271786) | 1 |
| 144 (active) | 148 | Galnt13 (GeneID 271786) | 2 |
| 83.8 | 111 | Galnt13 (GeneID 271786) | 3 |
| 120 (active) | 98.4 | Rprd2 (GeneID 75137) | 1 |
| 20 | 21.3 | Rprd2 (GeneID 75137) | 2 |
| 68.6 | 85.7 | Rprd2 (GeneID 75137) | 3 |
| 80.3 | 113 | Crbn (GeneID 58799) | 1 |
| 158 (active) | 60.3 | Crbn (GeneID 58799) | 2 |
| 113 | 88.5 | Crbn (GeneID 58799) | 3 |
| 87.6 | 66.5 | Ptk2b (GeneID 19229) | 1 |
| 86.7 | 79.7 | Ptk2b (GeneID 19229) | 2 |
| 63.6 | 86.9 | Ptk2b (GeneID 19229) | 3 |
| 65.1 | 102 | Tnfrsf13b (GeneID 57916) | 1 |
| 108 | 81.7 | Tnfrsf13b (GeneID 57916) | 2 |
| 80.2 | 87.8 | Tnfrsf13b (GeneID 57916) | 3 |
| 48.8 | 47.9 | Slc35b3 (GeneID 108652) | 1 |
| 82.6 | 78.3 | Slc35b3 (GeneID 108652) | 2 |
| 84.6 | 93.9 | Slc35b3 (GeneID 108652) | 3 |
| 56 | 64 | Pcp4 (GeneID 18546) | 1 |
| 66.4 | 81.5 | Pcp4 (GeneID 18546) | 2 |
| 58.2 | 69.2 | Pcp4 (GeneID 18546) | 3 |
| 142 (active) | 55.2 | Bdh2 (GeneID 69772) | 1 |
| 78.1 | 71.5 | Bdh2 (GeneID 69772) | 2 |
| 47.9 | 68.6 | Bdh2 (GeneID 69772) | 3 |
| 64.5 | 78.4 | Gimap5 (GeneID 317757) | 1 |
| 77.5 | 71.2 | Gimap5 (GeneID 317757) | 2 |
| 56.4 | 40 | Gimap5 (GeneID 317757) | 3 |
| 59.8 | 70 | Dnajc11 (GeneID 230935) | 1 |
| 97.7 | 80.3 | Dnajc11 (GeneID 230935) | 2 |
| 110 | 111 | Dnajc11 (GeneID 230935) | 3 |
| 74 | 66 | Ercc6l2 (GeneID 76251) | 1 |
| 105 | 94.1 | Ercc6l2 (GeneID 76251) | 2 |
| 137 (active) | 164 | Ercc6l2 (GeneID 76251) | 3 |
| 168 (active) | 65.1 | Lrrc8b (GeneID 433926) | 1 |
| 53.5 | 78.3 | Lrrc8b (GeneID 433926) | 2 |
| 69.6 | 59.9 | Lrrc8b (GeneID 433926) | 3 |
| 114 | 91.6 | Lrrc8b (GeneID 433926) | 4 |
| 126 (active) | 71.1 | Lrrc8b (GeneID 433926) | 5 |
| 100 | 74 | Lrrc8b (GeneID 433926) | 6 |
| 86.4 | 72.6 | Mrpl49 (GeneID 18120) | 1 |
| 94.3 | 88.1 | Mrpl49 (GeneID 18120) | 2 |
| 84.4 | 62.5 | Mrpl49 (GeneID 18120) | 3 |
| 100 | 122 | Bckdhb (GeneID 12040) | 1 |
| 107 | 60 | Bckdhb (GeneID 12040) | 2 |
| 61.7 | 76.3 | Bckdhb (GeneID 12040) | 3 |
| 79.4 | 89.5 | Als2 (GeneID 74018) | 1 |
| 76.8 | 105 | Als2 (GeneID 74018) | 2 |
| 54.4 | 78.6 | Als2 (GeneID 74018) | 3 |
| 32.5 | 35.6 | Tax1bp1 (GeneID 52440) | 1 |
| 43 | 31.4 | Tax1bp1 (GeneID 52440) | 2 |
| 63.6 | 56.1 | Tax1bp1 (GeneID 52440) | 3 |
| 97.8 | 81.8 | Nat8f5 (GeneID 69049) | 1 |
| 84.6 | 74 | Nat8f5 (GeneID 69049) | 2 |
| 73.7 | 51.6 | Nat8f5 (GeneID 69049) | 3 |
| 47.3 | 22.1 | Tnfsf15 (GeneID 326623) | 1 |
| 65.4 | 71.5 | Tnfsf15 (GeneID 326623) | 2 |
| 64.3 | 57.1 | Tnfsf15 (GeneID 326623) | 3 |
| 91.7 | 98.7 | Exo5 (GeneID 73172) | 1 |
| 232 (active) | 113 | Exo5 (GeneID 73172) | 2 |
| 78.7 | 81.8 | Exo5 (GeneID 73172) | 3 |
| 90.2 | 129 | Exo5 (GeneID 73172) | 4 |
| 91.9 | 109 | Exo5 (GeneID 73172) | 5 |
| 83.1 | 100 | Exo5 (GeneID 73172) | 6 |
| 89.4 | 125 | Srsf1 (GeneID 110809) | 1 |
| 87.3 | 108 | Srsf1 (GeneID 110809) | 2 |
| 80.2 | 81.1 | 5031434C07Rik (GeneID 100503613) | 1 |
| 73.3 | 94.3 | 5031434C07Rik (GeneID 100503613) | 2 |
| 150 (active) | 134 | 5031434C07Rik (GeneID 100503613) | 3 |
| 104 | 114 | Pi4ka (GeneID 224020) | 1 |
| 75.1 | 84.1 | Pi4ka (GeneID 224020) | 2 |
| 98.9 | 87.9 | Pi4ka (GeneID 224020) | 3 |
| 84.8 | 63.8 | Peli1 (GeneID 67245) | 1 |
| 142 (active) | 66.2 | Peli1 (GeneID 67245) | 2 |
| 88 | 77.4 | Peli1 (GeneID 67245) | 3 |
| 82.3 | 116 | Ptprv (GeneID 13924) | 1 |
| 35.9 | 55.9 | Ptprv (GeneID 13924) | 2 |
| 112 | 116 | Ptprv (GeneID 13924) | 3 |
| 49.5 | 91.2 | Tmem63a (GeneID 208795) | 1 |
| 76.5 | 107 | Tmem63a (GeneID 208795) | 2 |
| 175 (active) | 128 | Tmem63a (GeneID 208795) | 3 |
| 83.2 | 75.2 | Or6c6 (GeneID 257985) | 1 |
| 76.6 | 66.3 | Or6c6 (GeneID 257985) | 2 |
| 76.5 | 102 | Or6c6 (GeneID 257985) | 3 |
| 56.1 | 56.2 | Rpl13 (GeneID 270106) | 1 |
| 95.9 | 67.2 | Rpl13 (GeneID 270106) | 2 |
| 48.3 | 35.4 | Rpl13 (GeneID 270106) | 3 |

No new results follow: an excerpt of the list.
| GFP, % of control | viability (ATP), % of control | gene symbol | reagent |
| --- | --- | --- | --- |
| 142 (active) | 55.2 | Bdh2 (GeneID 69772) | 1 |
| 78.1 | 71.5 | Bdh2 (GeneID 69772) | 2 |
| 47.9 | 68.6 | Bdh2 (GeneID 69772) | 3 |
| 64.5 | 78.4 | Gimap5 (GeneID 317757) | 1 |
| 77.5 | 71.2 | Gimap5 (GeneID 317757) | 2 |
| 56.4 | 40 | Gimap5 (GeneID 317757) | 3 |
| 59.8 | 70 | Dnajc11 (GeneID 230935) | 1 |
| 97.7 | 80.3 | Dnajc11 (GeneID 230935) | 2 |
| 110 | 111 | Dnajc11 (GeneID 230935) | 3 |
